According to PubChem BioAssay AID504444 (National Center for Advancing Translational Sciences (NCATS), 2011):
About 7,500 (2.1%) of roughly 360,000 compounds were called active. Inconclusive means that the source gave no clear call. Such entries were picked first, then a sample of the others. Calls come from the whole dose curve; as a rule, active = well fitted inhibition curve with a large enough effect; inconclusive = small, poorly fitted or top-dose-only effect, or effect the other way; inactive = flat fitted curve, though single readings scatter. Where the call is inconclusive, the potency comes from a doubtful curve fit.

assay: Nrf2 qHTS screen for inhibitors; conditions: A549 ARE-Fluc reporter, luciferase luminescence, 18-24 h; activity change, negative = inhibition: at 46 µM (top of the series); note: nearly all actives have a fitted effect of over 60% in size
Procedure, shortened: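 Reporter: ARE-Fluc in A549. Exposure: 18-24 h, 37 °C, 5% CO2, 5% FBS OPTI-MEM. Readouts: fluorescent cytotoxicity (CellTiter-Fluor), then luminescent Nrf2 signal after BugLite.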
% is set by controls: 0 for no effect and ±100 for the full control effect; potency is the fitted concentration of half-maximal effect.

With `CC(Sc1ccccc1F)C(=O)Nc1ccc2c(c1)OCCO2` (stereo not given) as the compound, how does the Potency read?
The Potency was inconclusive: 5.8 µM [activator, partial curve].

For `Cc1cc(C(=O)Nc2cccc(-c3ccc(N4CCOCC4)nn3)c2)ccc1[N+](=O)[O-]`, which Potency is on record?
The Potency was inconclusive: 29.1 µM [falling, single point].

Which Potency does the source give for `N/C(=N\NS(=O)(=O)c1cc(C(F)(F)F)cc(C(F)(F)F)c1)c1ccccn1` here?
Its Potency is inconclusive: 29.1 µM [falling, single point].

Which Potency does the source give for `Cc1cnc(=O)[nH]c1SCc1ccc([N+](=O)[O-])cc1` here?
The Potency was inconclusive: 3.26 µM [falling, full curve, poor fit].

Which Potency does the source give for `CC(C)(C)OC(=O)N1CCC(c2c(C(=O)NCc3ccccc3)cnn2-c2ccc(F)cc2)CC1` here?
The Potency was inconclusive: 29.1 µM [falling, single point].

For `COc1ccc(C(=O)N2CCN(c3ccc([N+](=O)[O-])c(NCCc4ccc(OC)c(OC)c4)c3)CC2)cc1`, which Potency is on record?
Its Potency is active: 2.91 µM.

With `COc1cc2c(cc1OC)C(C)N(C(=O)Cc1ccc(C(F)(F)F)cc1)CC2` (stereo not given) as the compound, how does the Potency read?
Its Potency is inconclusive: 10.3 µM [falling, partial curve, poor fit].

Which Potency does the source give for `CCOc1ccccc1NC(=O)c1cc(S(=O)(=O)N2CCOCC2)cn1C` here?
The Potency was inconclusive: 29.1 µM [falling, single point].

Which Potency does the source give for `c1ccc2cc(-c3cc4ccccn4c3)ccc2c1` here?
The Potency was inconclusive: 3.66 µM [activator, full curve].

Which Potency does the source give for `O=C(c1cccn1-c1nnc(N2CCCCC2)s1)N1CCN(c2ccc(Cl)cc2)CC1` here?
The Potency was “inactive”.

Which Potency does the source give for `O=S(=O)(NC1CCCC(NS(=O)(=O)c2c(F)cccc2F)C1)c1ccc2c(c1)OCCO2` (stereo not given) here?
Its Potency is “inactive”.

For `COc1ccc(S(=O)(=O)N(CC(=O)Nc2cc(C)cc(C)c2)c2ccc(Cl)cc2)cc1`, which Potency is on record?
Its Potency is inconclusive: 29.1 µM [falling, single point].

For `CCn1c(C(=O)N2CCC(C(=O)N3CCN(c4ccc(OC)cc4)CC3)CC2)cc2sccc21`, which Potency is on record?
Its Potency is inconclusive: 18.4 µM [falling, partial curve].

For `COC(=O)c1ccc(OC)c(CSc2nnc(COc3ccc(Cl)cc3)o2)c1`, which Potency is on record?
Its Potency is inconclusive: 18.4 µM [falling, single point].

Which Potency does the source give for `CCc1c(C)nc2ncnn2c1N1CCCC(C(=O)NCc2ccc3c(c2)OCO3)C1` (stereo not given) here?
Its Potency is active: 10.3 µM.

For `COc1ccc(Cl)cc1N=C1NC(=O)CC(C(=O)Nc2ccccc2C(F)(F)F)S1` (stereo not given), which Potency is on record?
Its Potency is “inactive”.

With `Cc1ccn2cc(-c3cccc(NC(=O)CCC(=O)O)c3)nc2c1` as the compound, how does the Potency read?
The Potency was inconclusive: 8.2 µM [falling, partial curve].

Which Potency does the source give for `CCc1ccccc1N1CC(c2nc3ccccc3n2CCOc2ccc(Cl)c(C)c2)CC1=O` (stereo not given) here?
Its Potency is inconclusive: 29.1 µM [falling, single point].

With `O=C(CN1CCN(S(=O)(=O)c2ccccc2)CC1)Nc1ccc(Cl)cn1` as the compound, how does the Potency read?
Its Potency is inconclusive: 29.1 µM [falling, partial curve, poor fit].

With `CC1=CN(S(=O)(=O)c2ccc(C)cc2)C[C@@H]2[C@H]3CC[C@H](C3)[C@H]12` as the compound, how does the Potency read?
The Potency was inconclusive: 9.2 µM [falling, partial curve, poor fit].

Which Potency does the source give for `N/C(=N\OC(=O)COc1ccc(Br)cc1)c1ccncc1` here?
Its Potency is inconclusive: 8.2 µM [activator, partial curve, poor fit].

Which Potency does the source give for `O=C(NC1CCCCC1)C(c1ccc2ncccc2c1)N(Cc1ccc(F)cc1)C(=O)c1ccc2c(c1)OCCO2` (stereo not given) here?
Its Potency is inconclusive: 25.9 µM [falling, partial curve, poor fit].

Which activity change, negative = inhibition does the source give for `Cc1cc(C)cc(NC(=O)C(CC(C)C)NC(=O)C2CCCCC2)c1` (stereo not given) here?
Its activity change, negative = inhibition is inactive: 6.46% [at 9.27 µM].

Which Potency does the source give for `Cc1ccc(O)c(NC(=S)NC(=O)CC(C)C)c1` here?
Its Potency is “inactive”.

Which Potency does the source give for `O=C(c1cccc(S(=O)(=O)NCc2ccccc2)c1)N1CCN(c2ccccc2Cl)CC1` here?
The Potency was inconclusive: 29.1 µM [falling, single point].

With `COc1ccc(-c2nc(Cn3c(=O)cc(-c4ccccc4)c4c(C)nn(C)c43)c(C)o2)cc1OC` as the compound, how does the Potency read?
Its Potency is inconclusive: 13 µM [activator, partial curve, poor fit].

Which Potency does the source give for `Cc1cc(NC(=O)c2cccs2)n(-c2nc3ccccc3[nH]2)n1` here?
The Potency was inconclusive: 25.9 µM [falling, partial curve, poor fit].

Which Potency does the source give for `CCCCSc1n[nH]c(N)n1` here?
The Potency was inconclusive: 5.8 µM [falling, full curve, poor fit].

For `CCOc1ccc(Nc2nc3c(S(=O)(=O)c4ccc(CC)cc4)nnn3c3ccc(Cl)cc23)cc1`, which Potency is on record?
The Potency was inconclusive: 0.82 µM [falling, partial curve, poor fit].

For `COc1ccc(C(=O)Nc2ccc3[nH]ncc3c2)cc1`, which Potency is on record?
Its Potency is inconclusive: 32.6 µM [falling, single point].

Which Potency does the source give for `CN(C(=O)C=Cc1ccco1)c1ccccc1` here?
Its Potency is “inactive”.

With `O=C(Nc1ccc(Cl)c(S(=O)(=O)N2CCOCC2)c1)c1cn2ccccc2n1` as the compound, how does the Potency read?
The Potency was inconclusive: 1.16 µM [falling, full curve, poor fit].

With `Cc1nc(CC(=O)Nc2nc(-c3ccccc3)cs2)cs1` as the compound, how does the Potency read?
Its Potency is “inactive”.

With `CCCOC(=O)c1ccc(Oc2c(-c3ccc(OCC)cc3O)n[nH]c2C)cc1` as the compound, how does the Potency read?
The Potency was inconclusive: 18.4 µM [falling, single point].

For `c1ccc(CC2CCN(Cc3ccccn3)CC2)cc1`, which Potency is on record?
The Potency was inconclusive: 0.206 µM [falling, full curve, poor fit].

Which Potency does the source give for `CN(Cc1ccccc1)S(=O)(=O)c1nnc(NC(=O)c2ccccc2Cl)s1` here?
The Potency was “inactive”.

For `Cc1ccc(-n2nnnc2SCC(=O)Nc2cccc(NC(=O)c3ccco3)c2)cc1C`, which Potency is on record?
The Potency was inconclusive: 29.1 µM [falling, single point].

With `COc1ccc(-c2cn(Cc3ccc(C(=O)c4ccccc4)cc3)nn2)cc1` as the compound, how does the Potency read?
Its Potency is inconclusive: 16.4 µM [activator, partial curve].

With `Cn1nnnc1Sc1ccc([N+](=O)[O-])cc1Cl` as the compound, how does the Potency read?
Its Potency is inconclusive: 16.4 µM [falling, partial curve, poor fit].

With `CCCC(NCC(O)COc1ccc(-c2ccccc2)cc1)c1ccccc1` (stereo not given) as the compound, how does the Potency read?
Its Potency is inconclusive: 29.1 µM [falling, single point].

Which Potency does the source give for `O=C1CCCN1c1ccc(S(=O)(=O)Oc2cccc(Cl)c2)cc1[N+](=O)[O-]` here?
Its Potency is inconclusive: 18.4 µM [falling, partial curve, poor fit].

Which Potency does the source give for `COc1ccc(C(=O)CC(=O)C(=O)Nc2ccc(Cl)cc2)cc1` here?
The Potency was “inactive”.

Which Potency does the source give for `CCCN(CC(=O)Nc1ccccc1OC)C(=O)c1cc(-c2cccs2)nn1-c1ccccc1` here?
The Potency was inconclusive: 29.1 µM [falling, single point].

For `O=C(NCCn1cc(SCc2ccccc2)c2ccccc21)c1cccs1`, which Potency is on record?
The Potency was inconclusive: 29.1 µM [falling, single point].

For `Cc1cccc(C)c1OC1(c2ccccc2)OC(=O)c2ccccc21` (stereo not given), which Potency is on record?
The Potency was inconclusive: 32.6 µM [falling, single point].

For `Cc1ccccc1CC(=O)N1CCCC(CCC(=O)N2CCN(c3ccccn3)CC2)C1` (stereo not given), which Potency is on record?
Its Potency is inconclusive: 29.1 µM [falling, single point].

For `COc1ccccc1CNC(=O)CCCCn1c(=O)c2ccccc2n(Cc2ccccc2C)c1=O`, which Potency is on record?
The Potency was inconclusive: 9.2 µM [activator, partial curve, poor fit].

For `Cc1cccc(N/C(N)=N/c2nc3c(c(=O)[nH]2)CCCC3)c1`, which Potency is on record?
The Potency was inconclusive: 13 µM [falling, partial curve, poor fit].

Which Potency does the source give for `O=C(CSc1nnc(-c2cccc(S(=O)(=O)N3CCCCC3)c2)o1)c1ccc[nH]1` here?
The Potency was “inactive”.

For `CN(C)S(=O)(=O)c1ccc(NS(=O)(=O)/C=C/c2ccccc2)cc1`, which Potency is on record?
Its Potency is “inactive”.

With `NC(=O)C1CCN(C2=C(Cl)C(=O)c3ccccc3C2=O)CC1` as the compound, how does the Potency read?
The Potency was “inactive”.

For `Cc1ccc(C(C(=O)NCc2ccccc2)N(C(=O)c2csnn2)c2cccc3ccccc23)o1` (stereo not given), which Potency is on record?
The Potency was inconclusive: 25.9 µM [falling, single point].

With `CCOC(=O)c1oc2ccccc2c1NC(=O)c1cc(OC)cc(OC)c1` as the compound, how does the Potency read?
The Potency was inconclusive: 32.6 µM [falling, single point].

For `Brc1ccc(C2C3=C(Nc4ncnn42)c2ccccc2OC3c2ccncc2)cc1` (stereo not given), which Potency is on record?
Its Potency is inconclusive: 29.1 µM [falling, single point].

With `COc1cccc(C(=O)O/N=C(\N)CS(=O)(=O)c2ccccc2)c1` as the compound, how does the Potency read?
Its Potency is inconclusive: 5.8 µM [activator, full curve].

With `COc1cc(OC)c(S(=O)(=O)Nc2ccc(C)cn2)cc1NC(C)=O` as the compound, how does the Potency read?
The Potency was “inactive”.

Which Potency does the source give for `O=C(NCCC1=CCCCC1)NC12CC3CC(CC(C3)C1)C2` here?
Its Potency is inconclusive: 18.4 µM [activator, single point].

For `O=C(NCc1ccccc1F)Nc1ccc([N+](=O)[O-])cc1`, which Potency is on record?
Its Potency is inconclusive: 29.1 µM [falling, single point].

For `Cc1ccc2cccc(SCC(=O)NCC#N)c2n1`, which Potency is on record?
The Potency was “inactive”.

With `COc1ccc(-c2cc(-c3cc(OC)ccc3O)[nH]n2)cc1` as the compound, how does the Potency read?
The Potency was inconclusive: 25.9 µM [activator, partial curve, poor fit].

Which Potency does the source give for `O=C1C2CCCCN2C(=O)N1CCCCN1CCN(c2cccc(Br)c2)CC1` (stereo not given) here?
The Potency was “inactive”.

With `CC(=O)c1c(C)[nH]c(C(=O)OCC(=O)Nc2cc(S(=O)(=O)N3CCCCC3)ccc2C)c1C` as the compound, how does the Potency read?
The Potency was “inactive”.

With `O=C1c2ccccc2C(=O)N1CC(O)COc1ccccc1Cl` (stereo not given) as the compound, how does the Potency read?
The Potency was inconclusive: 1.84 µM [activator, full curve, poor fit].

With `COc1c(C)cc(C(=O)C2CCCN(C(=O)Cn3ccc(C)n3)C2)cc1C` (stereo not given) as the compound, how does the Potency read?
The Potency was inconclusive: 6.51 µM [falling, partial curve, poor fit].

For `CC(C)c1ccc(NC(=O)Cn2ncc3ccccc32)cc1`, which Potency is on record?
The Potency was inconclusive: 0.651 µM [activator, full curve].
